This is an account of results in publication doi:10.1101/2020.05.12.090571.

By UniProt entry, the sequences of proteins in these tests, tags left out. Residues count along the entry.
UniProt P30530, residues 26-894: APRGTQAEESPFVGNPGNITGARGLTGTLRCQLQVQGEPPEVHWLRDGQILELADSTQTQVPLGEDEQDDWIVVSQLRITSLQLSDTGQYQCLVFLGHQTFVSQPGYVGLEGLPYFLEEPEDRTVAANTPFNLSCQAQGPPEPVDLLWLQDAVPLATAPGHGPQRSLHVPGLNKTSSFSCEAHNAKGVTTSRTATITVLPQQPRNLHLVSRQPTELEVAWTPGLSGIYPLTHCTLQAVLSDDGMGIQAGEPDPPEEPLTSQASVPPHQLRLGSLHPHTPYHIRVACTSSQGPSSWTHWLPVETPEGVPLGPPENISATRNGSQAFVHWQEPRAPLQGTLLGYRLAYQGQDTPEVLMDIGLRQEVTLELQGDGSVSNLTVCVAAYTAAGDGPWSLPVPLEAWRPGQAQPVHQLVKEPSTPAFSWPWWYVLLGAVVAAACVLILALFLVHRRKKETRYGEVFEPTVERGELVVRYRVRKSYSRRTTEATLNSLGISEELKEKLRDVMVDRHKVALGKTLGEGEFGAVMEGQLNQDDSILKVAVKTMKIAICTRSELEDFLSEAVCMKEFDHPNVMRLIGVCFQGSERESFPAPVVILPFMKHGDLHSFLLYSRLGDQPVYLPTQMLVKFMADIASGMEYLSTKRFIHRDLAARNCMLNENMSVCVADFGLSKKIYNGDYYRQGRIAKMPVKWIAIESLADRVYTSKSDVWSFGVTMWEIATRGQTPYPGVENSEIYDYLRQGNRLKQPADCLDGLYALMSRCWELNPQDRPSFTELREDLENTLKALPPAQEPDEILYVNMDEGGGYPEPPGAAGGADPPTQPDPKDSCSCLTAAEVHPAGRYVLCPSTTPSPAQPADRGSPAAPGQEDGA

Holding throughout (assay): co-IP
Assay [1] concerns the target K-Ras4B-GFP (UniProt P01116).
Assay [2] has as its target K-Ras4A-GFP (UniProt P01116).
Assay [3] addresses AXL (human (endogenous in MCF10A)) (UniProt P30530).

No constants are given. Whether binding was seen depends on the method and setting. Binding seen in cells or lysates may run through a third protein. Some binding calls cover weakened binding; strength is not graded here. Sequences can lack the tags named with a protein.

B1: flotillin 1-HA (protein, UniProt O75955 1-427)
chain: MFFTCGPNEAMVVSGFCRSPPVMVAGGRVFVLPCIQQIQRISLNTLTLNVKSEKVYTRHGVPISVTGIAQVKIQGQNKEMLAAACQMFLGKTEAEIAHIALETLEGHQRAIMAHMTVEEIYKDRQKFSEQVFKVASSDLVNMGISVVSYTLKDIHDDQDYLHSLGKARTAQVQKDARIGEAEAKRDAGIREAKAKQEKVSAQYLSEIEMAKAQRDYELKKAAYDIEVNTRRAQADLAYQLQVAKTKQQIEEQRVQVQVVERAQQVAVQEQEIARREKELEARVRKPAEAERYKLERLAEAEKSQLIMQAEAEAASVRMRGEAEAFAIGARARAEAEQMAKKAEAFQLYQEAAQLDMLLEKLPQVAEEISGPLTSANKITLVSSGSGTMGAAKVTGEVLDILTRLPESVERLTGVSISQVNHKPLRTA
Regarding B1, the values for the binding result in assay [1], in assay [2] and in assay [3] were “binds”, “no binding” and “binds”, respectively.

B2: flotillin 1 (endogenous) (protein, UniProt O75955 1-427)
chain: MFFTCGPNEAMVVSGFCRSPPVMVAGGRVFVLPCIQQIQRISLNTLTLNVKSEKVYTRHGVPISVTGIAQVKIQGQNKEMLAAACQMFLGKTEAEIAHIALETLEGHQRAIMAHMTVEEIYKDRQKFSEQVFKVASSDLVNMGISVVSYTLKDIHDDQDYLHSLGKARTAQVQKDARIGEAEAKRDAGIREAKAKQEKVSAQYLSEIEMAKAQRDYELKKAAYDIEVNTRRAQADLAYQLQVAKTKQQIEEQRVQVQVVERAQQVAVQEQEIARREKELEARVRKPAEAERYKLERLAEAEKSQLIMQAEAEAASVRMRGEAEAFAIGARARAEAEQMAKKAEAFQLYQEAAQLDMLLEKLPQVAEEISGPLTSANKITLVSSGSGTMGAAKVTGEVLDILTRLPESVERLTGVSISQVNHKPLRTA
As to B2, the binding result is “binds” in assay [1] and “no binding” in assay [2].
